Data reported in patent US20230293676A1, “Pharmaceutical Composition Comprising Hepatitis B Virus-Derived Polypeptide for Prevention or Treatment of Cancer” (priority 2020, published 2023).
At least one peptide structure holds a part that was inferred or is arguable (an end, a ring closure or a residue). Ends that are not written are not given here.

How the values were obtained:
MC38 tumor tissue = test: TUNEL assay of MC38 tumor tissue; assay type: in vivo, C57BL/6 mice; conditions: MC38 tumor tissue compared to a PBS control
[1] = system: Mouse-derived dendritic cells; test: TNF-α cytokine secreted by dendritic cells, ELISA; assay type: cell-based
MC38 tumor tissues = test: CD8 T cell-mediated CTL response, qRT-PCR of mRNA in MC38 tumor tissue; assay type: in vivo, mice; conditions: poly6-stimulated tumor tissue
[2] = system: HBV W4P large surface proteins-expressing NIH-3T3 cells; test: anticancer effect in balb nu/nu mice (absence of T cells); assay type: in vivo
DC2.4 cell line = test: dendritic cell activation in DC2.4 cells, flow cytometry; assay type: cell-based; conditions: DC2.4 cultured along with poly6 for 24 hours

GRLVFQ [poly6, GRLVFQ]
apoptotic cell death (MC38 tumor tissue): greatly increased | expression of TNF-α cytokine ([1]; C57BL/6 dendritic cells, poly6 10 pM, 1 nM, 100 nM, 10 μM): increased by poly6 treatment in a concentration-dependent manner | amount of secreted TNF-α ([1]; interferon knockout mice compared to C57BL/6 mice, 100 nM or 10 μM of poly6): statistically significantly reduced | mRNA levels of death signal ligands (TRAIL, Fas, and Fas L) (MC38 tumor tissues): statistically significantly increased | tumor size [2]: reduced | tumor weight [2]: reduced | dendritic cells in which CD40, CD80 and MHCII molecules were expressed (DC2.4 cell line): identified
